Data: the supplement of paper PMC10849652
Some of the results follow.

By UniProt entry, the sequences of proteins in these tests, tags left out. Where a name states a change or a piece, a line headed by the entry shows the natural chain unless it says otherwise.
UniProt Q93096: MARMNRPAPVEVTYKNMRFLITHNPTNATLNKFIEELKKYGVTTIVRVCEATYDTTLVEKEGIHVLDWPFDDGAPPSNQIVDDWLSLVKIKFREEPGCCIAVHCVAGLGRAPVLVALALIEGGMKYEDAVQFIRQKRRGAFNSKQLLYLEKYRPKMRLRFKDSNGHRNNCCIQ
UniProt P18031: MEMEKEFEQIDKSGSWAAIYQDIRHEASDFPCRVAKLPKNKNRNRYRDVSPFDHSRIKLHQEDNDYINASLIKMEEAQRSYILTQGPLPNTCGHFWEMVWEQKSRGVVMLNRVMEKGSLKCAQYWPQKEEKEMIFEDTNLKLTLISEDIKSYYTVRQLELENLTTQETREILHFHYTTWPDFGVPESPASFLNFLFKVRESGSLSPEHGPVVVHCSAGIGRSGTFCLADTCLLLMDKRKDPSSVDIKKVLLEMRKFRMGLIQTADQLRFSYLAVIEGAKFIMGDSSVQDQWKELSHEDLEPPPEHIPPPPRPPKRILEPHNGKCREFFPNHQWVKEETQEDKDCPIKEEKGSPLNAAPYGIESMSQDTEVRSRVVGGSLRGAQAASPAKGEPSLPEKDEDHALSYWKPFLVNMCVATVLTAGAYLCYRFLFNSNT
UniProt Q5JS54: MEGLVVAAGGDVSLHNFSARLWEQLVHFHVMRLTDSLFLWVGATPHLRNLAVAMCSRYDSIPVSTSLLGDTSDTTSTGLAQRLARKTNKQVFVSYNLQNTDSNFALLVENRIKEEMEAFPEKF
UniProt O00487, whole entry, looked up: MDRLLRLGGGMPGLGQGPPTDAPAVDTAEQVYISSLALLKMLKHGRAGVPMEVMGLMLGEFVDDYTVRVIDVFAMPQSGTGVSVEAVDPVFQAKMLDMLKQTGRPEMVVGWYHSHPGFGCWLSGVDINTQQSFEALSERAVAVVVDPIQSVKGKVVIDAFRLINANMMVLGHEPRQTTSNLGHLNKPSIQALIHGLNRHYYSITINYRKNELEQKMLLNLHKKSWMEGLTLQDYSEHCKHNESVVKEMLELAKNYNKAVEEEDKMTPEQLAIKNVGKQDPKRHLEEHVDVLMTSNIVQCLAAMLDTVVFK
UniProt O14818: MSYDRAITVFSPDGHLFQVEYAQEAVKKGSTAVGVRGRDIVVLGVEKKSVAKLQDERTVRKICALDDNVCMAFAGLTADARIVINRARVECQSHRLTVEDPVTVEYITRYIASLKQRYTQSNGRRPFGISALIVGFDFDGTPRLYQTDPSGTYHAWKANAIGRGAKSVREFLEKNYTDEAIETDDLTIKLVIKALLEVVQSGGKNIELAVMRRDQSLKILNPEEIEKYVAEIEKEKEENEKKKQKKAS
UniProt Q9BZE2: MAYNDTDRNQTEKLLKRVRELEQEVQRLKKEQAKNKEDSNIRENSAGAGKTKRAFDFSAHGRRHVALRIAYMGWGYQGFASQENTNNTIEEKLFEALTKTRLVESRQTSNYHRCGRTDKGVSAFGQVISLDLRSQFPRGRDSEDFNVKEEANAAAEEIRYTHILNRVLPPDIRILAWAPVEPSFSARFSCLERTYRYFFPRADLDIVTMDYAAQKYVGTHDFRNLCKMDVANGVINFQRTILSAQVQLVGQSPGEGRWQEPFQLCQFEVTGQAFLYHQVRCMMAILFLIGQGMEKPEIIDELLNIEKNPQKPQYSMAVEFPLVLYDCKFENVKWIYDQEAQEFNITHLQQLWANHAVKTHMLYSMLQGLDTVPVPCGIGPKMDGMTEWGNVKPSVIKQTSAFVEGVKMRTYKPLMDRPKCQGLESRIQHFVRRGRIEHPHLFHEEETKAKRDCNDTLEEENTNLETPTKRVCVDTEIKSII
UniProt Q9P2B2: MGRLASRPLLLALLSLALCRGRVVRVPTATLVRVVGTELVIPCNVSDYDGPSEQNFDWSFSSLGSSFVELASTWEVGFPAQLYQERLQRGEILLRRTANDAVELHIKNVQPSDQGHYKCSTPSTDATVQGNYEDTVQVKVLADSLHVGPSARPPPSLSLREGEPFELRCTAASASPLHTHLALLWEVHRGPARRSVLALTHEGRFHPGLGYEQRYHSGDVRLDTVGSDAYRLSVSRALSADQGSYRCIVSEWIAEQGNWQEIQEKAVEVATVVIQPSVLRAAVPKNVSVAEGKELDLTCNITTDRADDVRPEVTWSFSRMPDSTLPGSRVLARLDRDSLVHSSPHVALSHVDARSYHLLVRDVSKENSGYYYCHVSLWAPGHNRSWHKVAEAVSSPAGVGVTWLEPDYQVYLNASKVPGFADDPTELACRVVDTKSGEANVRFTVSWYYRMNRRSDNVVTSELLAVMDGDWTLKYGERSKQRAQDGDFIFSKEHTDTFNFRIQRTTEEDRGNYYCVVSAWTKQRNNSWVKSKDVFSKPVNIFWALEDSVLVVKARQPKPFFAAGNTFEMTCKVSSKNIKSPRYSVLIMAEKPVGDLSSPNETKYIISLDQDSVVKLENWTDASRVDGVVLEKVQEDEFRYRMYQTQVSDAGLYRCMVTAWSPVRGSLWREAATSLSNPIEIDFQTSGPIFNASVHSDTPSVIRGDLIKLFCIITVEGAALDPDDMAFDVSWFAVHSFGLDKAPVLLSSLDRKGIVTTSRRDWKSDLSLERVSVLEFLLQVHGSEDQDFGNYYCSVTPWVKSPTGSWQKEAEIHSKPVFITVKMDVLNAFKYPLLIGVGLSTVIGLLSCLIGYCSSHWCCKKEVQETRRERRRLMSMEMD
UniProt Q8N8N7: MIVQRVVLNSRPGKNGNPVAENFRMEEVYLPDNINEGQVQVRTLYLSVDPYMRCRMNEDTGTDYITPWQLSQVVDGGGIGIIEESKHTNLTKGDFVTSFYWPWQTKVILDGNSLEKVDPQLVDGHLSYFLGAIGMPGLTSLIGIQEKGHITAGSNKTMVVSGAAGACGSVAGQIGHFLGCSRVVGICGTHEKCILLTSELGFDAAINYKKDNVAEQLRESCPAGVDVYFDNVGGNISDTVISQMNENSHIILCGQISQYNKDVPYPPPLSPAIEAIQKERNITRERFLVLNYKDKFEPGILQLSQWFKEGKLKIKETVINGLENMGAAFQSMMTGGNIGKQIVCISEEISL
UniProt P43686, whole entry, looked up: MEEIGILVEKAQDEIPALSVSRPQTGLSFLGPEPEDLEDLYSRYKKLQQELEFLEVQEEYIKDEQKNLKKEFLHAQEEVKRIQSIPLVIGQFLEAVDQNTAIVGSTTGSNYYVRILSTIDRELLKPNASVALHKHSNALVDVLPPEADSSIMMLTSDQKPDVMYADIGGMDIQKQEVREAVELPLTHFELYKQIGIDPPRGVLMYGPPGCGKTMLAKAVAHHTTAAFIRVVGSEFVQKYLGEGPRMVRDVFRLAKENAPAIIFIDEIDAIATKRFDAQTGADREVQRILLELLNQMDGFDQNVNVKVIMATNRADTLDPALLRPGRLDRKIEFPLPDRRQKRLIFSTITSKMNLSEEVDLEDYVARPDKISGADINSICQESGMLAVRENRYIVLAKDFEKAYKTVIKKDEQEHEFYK
UniProt Q9P2W1: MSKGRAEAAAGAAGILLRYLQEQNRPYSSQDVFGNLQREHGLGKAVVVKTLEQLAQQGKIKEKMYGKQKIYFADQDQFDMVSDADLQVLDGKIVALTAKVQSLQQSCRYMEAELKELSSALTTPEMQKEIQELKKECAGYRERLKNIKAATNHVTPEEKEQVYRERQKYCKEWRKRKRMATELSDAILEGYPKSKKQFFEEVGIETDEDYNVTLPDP
UniProt Q9Y606: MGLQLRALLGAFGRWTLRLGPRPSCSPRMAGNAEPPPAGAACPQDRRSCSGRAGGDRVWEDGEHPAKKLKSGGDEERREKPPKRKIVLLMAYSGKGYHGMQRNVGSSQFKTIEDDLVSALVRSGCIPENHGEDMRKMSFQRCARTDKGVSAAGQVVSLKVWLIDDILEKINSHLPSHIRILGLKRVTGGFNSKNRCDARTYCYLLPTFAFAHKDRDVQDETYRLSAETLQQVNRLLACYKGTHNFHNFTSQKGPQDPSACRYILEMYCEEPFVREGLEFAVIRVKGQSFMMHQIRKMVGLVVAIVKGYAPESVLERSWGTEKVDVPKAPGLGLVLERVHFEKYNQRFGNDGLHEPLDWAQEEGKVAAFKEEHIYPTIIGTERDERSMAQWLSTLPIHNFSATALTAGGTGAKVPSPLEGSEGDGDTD
UniProt P62333, whole entry, looked up: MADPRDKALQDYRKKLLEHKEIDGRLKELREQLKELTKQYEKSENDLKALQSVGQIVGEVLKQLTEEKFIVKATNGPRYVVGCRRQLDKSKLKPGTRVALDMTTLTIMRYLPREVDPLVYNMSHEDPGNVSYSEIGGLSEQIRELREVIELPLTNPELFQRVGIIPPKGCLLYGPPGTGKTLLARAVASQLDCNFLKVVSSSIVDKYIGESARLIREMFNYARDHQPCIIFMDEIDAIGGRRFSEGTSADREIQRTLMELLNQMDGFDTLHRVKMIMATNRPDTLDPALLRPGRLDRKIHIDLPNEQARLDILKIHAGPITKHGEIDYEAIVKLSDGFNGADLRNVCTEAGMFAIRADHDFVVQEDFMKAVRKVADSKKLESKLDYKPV
UniProt Q13332: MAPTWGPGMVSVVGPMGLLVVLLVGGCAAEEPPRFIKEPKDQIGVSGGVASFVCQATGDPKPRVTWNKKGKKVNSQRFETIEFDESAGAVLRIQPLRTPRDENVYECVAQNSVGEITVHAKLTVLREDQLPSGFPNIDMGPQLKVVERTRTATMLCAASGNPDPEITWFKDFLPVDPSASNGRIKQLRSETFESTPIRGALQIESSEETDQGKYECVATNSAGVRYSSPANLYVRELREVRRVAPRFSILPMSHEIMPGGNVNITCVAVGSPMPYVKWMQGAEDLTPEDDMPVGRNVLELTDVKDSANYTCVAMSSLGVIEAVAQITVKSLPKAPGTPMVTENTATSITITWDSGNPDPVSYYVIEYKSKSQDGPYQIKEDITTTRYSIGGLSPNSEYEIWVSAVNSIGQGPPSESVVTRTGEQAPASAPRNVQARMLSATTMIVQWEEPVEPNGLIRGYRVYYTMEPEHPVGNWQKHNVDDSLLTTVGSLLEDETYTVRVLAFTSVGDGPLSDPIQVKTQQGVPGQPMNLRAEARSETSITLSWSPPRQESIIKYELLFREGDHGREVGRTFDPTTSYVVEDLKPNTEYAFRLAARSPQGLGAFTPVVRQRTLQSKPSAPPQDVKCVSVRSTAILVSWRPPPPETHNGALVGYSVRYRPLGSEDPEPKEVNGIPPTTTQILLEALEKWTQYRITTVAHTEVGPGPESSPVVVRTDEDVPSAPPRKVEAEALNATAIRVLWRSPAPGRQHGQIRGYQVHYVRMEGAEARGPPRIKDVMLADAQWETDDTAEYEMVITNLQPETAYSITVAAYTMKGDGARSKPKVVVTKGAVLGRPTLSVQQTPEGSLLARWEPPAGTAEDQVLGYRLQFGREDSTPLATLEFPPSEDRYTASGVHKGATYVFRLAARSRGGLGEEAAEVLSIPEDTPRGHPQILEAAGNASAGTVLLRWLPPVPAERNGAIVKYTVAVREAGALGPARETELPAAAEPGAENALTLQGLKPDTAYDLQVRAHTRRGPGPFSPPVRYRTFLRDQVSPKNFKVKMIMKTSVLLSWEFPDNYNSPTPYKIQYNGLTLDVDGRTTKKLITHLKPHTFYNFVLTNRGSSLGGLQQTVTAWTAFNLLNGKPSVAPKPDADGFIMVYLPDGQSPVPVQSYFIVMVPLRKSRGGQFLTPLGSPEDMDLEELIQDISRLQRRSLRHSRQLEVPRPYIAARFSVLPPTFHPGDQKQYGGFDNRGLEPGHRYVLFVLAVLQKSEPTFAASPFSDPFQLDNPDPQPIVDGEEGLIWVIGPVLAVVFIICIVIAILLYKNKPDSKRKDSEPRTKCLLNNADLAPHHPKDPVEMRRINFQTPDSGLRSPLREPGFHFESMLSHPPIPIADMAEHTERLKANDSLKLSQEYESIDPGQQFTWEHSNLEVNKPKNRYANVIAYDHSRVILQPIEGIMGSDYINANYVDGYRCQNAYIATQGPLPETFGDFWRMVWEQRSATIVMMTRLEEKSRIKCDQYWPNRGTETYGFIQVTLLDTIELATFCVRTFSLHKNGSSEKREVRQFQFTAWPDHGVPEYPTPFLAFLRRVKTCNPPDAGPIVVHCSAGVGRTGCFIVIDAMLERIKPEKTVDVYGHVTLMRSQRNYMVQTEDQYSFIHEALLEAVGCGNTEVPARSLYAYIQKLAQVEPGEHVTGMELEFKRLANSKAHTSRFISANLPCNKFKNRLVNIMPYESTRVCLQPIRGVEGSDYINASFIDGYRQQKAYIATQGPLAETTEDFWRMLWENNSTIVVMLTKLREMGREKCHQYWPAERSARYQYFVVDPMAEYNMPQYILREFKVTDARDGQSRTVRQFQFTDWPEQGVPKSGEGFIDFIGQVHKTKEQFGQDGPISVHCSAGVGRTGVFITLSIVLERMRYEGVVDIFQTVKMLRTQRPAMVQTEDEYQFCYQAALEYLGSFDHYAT
UniProt P49721: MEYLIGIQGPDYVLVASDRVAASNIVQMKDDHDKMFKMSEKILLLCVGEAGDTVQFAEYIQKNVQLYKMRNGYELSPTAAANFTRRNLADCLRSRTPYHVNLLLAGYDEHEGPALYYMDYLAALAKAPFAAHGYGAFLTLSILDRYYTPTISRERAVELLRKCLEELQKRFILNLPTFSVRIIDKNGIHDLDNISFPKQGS

What was measured:
Experiment in all cases: log2 fold change, soluble protein after heating vs DMSO (PISA); higher = thermal stabilisation; K562 lysate, 10 uM; active = over 0.2 and 3.5 SD of the protein, either way, in both replicates (recomputed)
vemurafenib = compound: CCCS(=O)(=O)Nc1ccc(F)c(C(=O)c2c[nH]c3ncc(-c4ccc(Cl)cc4)cc23)c1F [vemurafenib]
In short: (§1)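 Following dounce homogenisation of K562 pellets in PBS pH 7.4 with 1 mM MgCl2, crude extract at 1 mg/mL protein was incubated for 30 min with 10 μM compound. Aliquots were then heated for 3 min over 48°C-58°C and pooled, NP-40 was added to 0.5% at 4°C, and soluble protein was recovered as the supernatant at 21,000xg for 90 min. Channel-sum-equalised TMTpro 16plex LC-MS/MS quantified this protein. Each value, from duplicates, is a log-two fold change in thermal stability relative to solvent controls.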

[1] = compound: CCCS(=O)(=O)Nc1ccc(F)c(C(=O)c2c[nH]c3ncc(Cl)cc23)c1F
In short: as §1

barasertib = compound: CCN(CCCOc1ccc2c(Nc3cc(CC(=O)Nc4cccc(F)c4)[nH]n3)ncnc2c1)CCOP(=O)(O)O [barasertib]
In short: as §1

[2] = compound: CC[C@@H]1C(=O)N(C)c2cnc(Nc3ccc(C(=O)NC4CCN(C)CC4)cc3OC)nc2N1C1CCCC1
In short: as §1

volasertib = compound: CC[C@@H]1C(=O)N(C)c2cnc(Nc3ccc(C(=O)N[C@H]4CC[C@H](N5CCN(CC6CC6)CC5)CC4)cc3OC)nc2N1C(C)C [volasertib]
In short: as §1

[3] = compound: CCn1c(C(=O)N(C2CC2)C2CC2)cc2c3c(ncn3C)c(Nc3cc(C)n(C)n3)nc21
In short: as §1

[4] = compound: CCn1cc(-c2ccnc3[nH]c(-c4cccc(CN(C)C)c4)cc23)c(-c2ccc(NC(=O)N(C)C)cc2)n1
In short: as §1

[5] = compound: CN1CCC(CNc2ccc3ncc(-c4cccc(OC(F)(F)F)c4)n3n2)CC1
In short: as §1

saracatinib = compound: CN1CCN(CCOc2cc(OC3CCOCC3)c3c(Nc4c(Cl)ccc5c4OCO5)ncnc3c2)CC1 [saracatinib]
In short: as §1

sotrastaurin = compound: CN1CCN(c2nc(C3=C(c4c[nH]c5ccccc45)C(=O)NC3=O)c3ccccc3n2)CC1 [sotrastaurin]
In short: as §1

alvocidib = compound: CN1CC[C@H](c2c(O)cc(O)c3c(=O)cc(-c4ccccc4Cl)oc23)[C@H](O)C1 [alvocidib]
In short: as §1

Tubastatin A = compound: CN1CCc2c(c3ccccc3n2Cc2ccc(C(=O)NO)cc2)C1 [Tubastatin A]
In short: as §1

[6] = compound: CNC(=O)C1=CC=CC=C1NC2=NC(=NC=C2Cl)NC3=C(C=C(C=C3)N4CCOCC4)OC
In short: as §1

defactinib = compound: CNC(=O)c1ccc(Nc2ncc(C(F)(F)F)c(NCc3nccnc3N(C)S(C)(=O)=O)n2)cc1 [defactinib]
In short: as §1

[7] = compound: CNc1nc(-c2ccc3c(N)n[nH]c3c2)cc(N2C[C@@H](C(=O)NC3CCCCC3)CC[C@H]2C)n1
In short: as §1

encorafenib = compound: COC(=O)N[C@@H](C)CNc1nccc(-c2cn(C(C)C)nc2-c2cc(Cl)cc(NS(C)(=O)=O)c2F)n1 [encorafenib]
In short: as §1

[8] = compound: COC(=O)[C@H](CCSC)NC(=O)C1=C(C=C(C=C1)NC[C@H](CS)N)C2=CC=CC=C2
In short: as §1

alisertib = compound: COc1cc(Nc2ncc3c(n2)-c2ccc(Cl)cc2C(c2c(F)cccc2OC)=NC3)ccc1C(=O)O [alisertib]
In short: as §1

[9] = compound: COc1cc2nc(-c3cc(F)ccc3O)nc(N[C@@H]3CNC[C@H]3C(C)(C)O)c2cc1OC
In short: as §1

gefitinib = compound: COc1cc2ncnc(Nc3ccc(F)c(Cl)c3)c2cc1OCCCN1CCOCC1 [gefitinib]
In short: as §1

Measured: log2 fold change

PSD4 (UniProt Q8NDX1)
inactive: vemurafenib -0.044 | [1] 0.029 | barasertib 0.016 | [2] -0.014 | volasertib -0.075 | [3] 0.003 | [4] 0.193 | [5] -0.03 | saracatinib 0.048 | sotrastaurin 0.005 | alvocidib 0.01 | Tubastatin A -0.093 | [6] 0.003 | defactinib 0.057 | [7] -0.016 | encorafenib 0.024 | [8] 0.006 | alisertib 0.011 | [9] 0.012 | gefitinib -0.002

PTP4A1 (UniProt Q93096)
inactive: vemurafenib -0.006 | [1] -0.029 | barasertib -0.041 | [2] 0.017 | volasertib 0.036 | [3] 0.019 | [4] 0.177 | [5] -0.05 | saracatinib 0.001 | sotrastaurin 0 | alvocidib 0.05 | Tubastatin A 0.033 | [6] 0.023 | defactinib 0.033 | [7] 0.023 | encorafenib 0.006 | [8] -0.006 | alisertib -0.056 | [9] -0.015 | gefitinib 0.049

PTPN1 (UniProt P18031)
inactive: vemurafenib 0.04 | [1] -0.005 | barasertib 0.042 | [2] -0.029 | volasertib -0.04 | [3] 0.033 | [4] -0.061 | [5] -0.03 | saracatinib 0.022 | sotrastaurin 0.069 | alvocidib -0.002 | Tubastatin A -0.048 | [6] 0.018 | defactinib 0.015 | [7] -0.033 | encorafenib -0.003 | [8] 0.014 | alisertib 0.005 | [9] 0.047 | gefitinib 0.014

PSMG4 isoform 2 (UniProt Q5JS54)
inactive: vemurafenib 0.008 | [1] 0.012 | barasertib 0.097 | [2] 0 | volasertib 0.048 | [3] 0.073 | [4] -0.257 | [5] -0.024 | saracatinib -0.009 | sotrastaurin 0.02 | alvocidib -0.141 | Tubastatin A -0.056 | [6] 0.055 | defactinib 0.01 | [7] 0.113 | encorafenib 0.058 | [8] 0.012 | alisertib -0.098 | [9] -0.036 | gefitinib 0.018

PSMD14 (UniProt O00487)
inactive: vemurafenib 0.001 | [1] 0 | barasertib 0.082 | [2] -0.005 | volasertib -0.032 | [3] 0.045 | [4] -0.012 | [5] -0.013 | saracatinib 0.005 | sotrastaurin -0.016 | alvocidib 0.029 | Tubastatin A 0.007 | [6] -0.003 | defactinib 0.001 | [7] -0.013 | encorafenib -0.013 | [8] 0.055 | alisertib 0.01 | [9] -0.034 | gefitinib 0.019

PSMA7 (UniProt O14818)
inactive: vemurafenib -0.007 | [1] -0.038 | barasertib -0.03 | [2] 0.014 | volasertib 0.018 | [3] -0.009 | [4] 0.015 | [5] -0.039 | saracatinib 0.004 | sotrastaurin 0.006 | alvocidib 0.012 | Tubastatin A 0.046 | [6] 0.008 | defactinib -0.032 | [7] 0.005 | encorafenib -0.011 | [8] -0.032 | alisertib 0.001 | [9] -0.008 | gefitinib 0.028

PUS3 (UniProt Q9BZE2)
inactive: vemurafenib 0.083 | [1] 0.036 | barasertib 0.074 | [2] -0.058 | volasertib -0.007 | [3] 0.071 | [4] 0.193 | [5] -0.195 | saracatinib 0.018 | sotrastaurin 0.052 | alvocidib 0.094 | Tubastatin A -0.181 | [6] 0.035 | defactinib -0.089 | [7] -0.117 | encorafenib 0.06 | [8] 0.04 | alisertib 0.01 | [9] -0.021 | gefitinib 0.041

PTGFRN (UniProt Q9P2B2)
inactive: vemurafenib -0.002 | [1] 0.016 | barasertib 0.016 | [2] 0.019 | volasertib 0.013 | [3] -0.009 | [4] -0.013 | [5] 0.051 | saracatinib 0.016 | sotrastaurin 0.05 | alvocidib 0.021 | Tubastatin A 0.021 | [6] -0.017 | defactinib 0.035 | [7] -0.029 | encorafenib 0.02 | [8] -0.041 | alisertib -0.022 | [9] 0.004 | gefitinib 0.018

PTGR2 (UniProt Q8N8N7)
inactive: vemurafenib -0.029 | [1] 0.04 | barasertib -0.022 | [2] 0.056 | volasertib -0.039 | [3] 0.069 | [4] 0.012 | [5] 0.092 | saracatinib -0.021 | sotrastaurin 0.1 | alvocidib 0.018 | Tubastatin A -0.023 | [6] 0.02 | defactinib 0.018 | [7] -0.021 | encorafenib -0.043 | alisertib 0.014 | [9] 0.004 | gefitinib -0.007
active: [8] 0.694

Reprinted at random: 2 records from the list
PUS3 (UniProt Q9BZE2)
inactive: vemurafenib 0.083 | [1] 0.036 | barasertib 0.074 | [2] -0.058 | volasertib -0.007 | [3] 0.071 | [4] 0.193 | [5] -0.195 | saracatinib 0.018 | sotrastaurin 0.052 | alvocidib 0.094 | Tubastatin A -0.181 | [6] 0.035 | defactinib -0.089 | [7] -0.117 | encorafenib 0.06 | [8] 0.04 | alisertib 0.01 | [9] -0.021 | gefitinib 0.041

PTGR2 (UniProt Q8N8N7)
inactive: vemurafenib -0.029 | [1] 0.04 | barasertib -0.022 | [2] 0.056 | volasertib -0.039 | [3] 0.069 | [4] 0.012 | [5] 0.092 | saracatinib -0.021 | sotrastaurin 0.1 | alvocidib 0.018 | Tubastatin A -0.023 | [6] 0.02 | defactinib 0.018 | [7] -0.021 | encorafenib -0.043 | alisertib 0.014 | [9] 0.004 | gefitinib -0.007
active: [8] 0.694

(further entries)

PSME3 isoform 2 (UniProt P61289)
inactive: vemurafenib -0.005 | [1] -0.006 | barasertib -0.028 | [2] 0.011 | volasertib 0.025 | [3] -0.001 | [4] 0.015 | [5] 0.014 | saracatinib -0.022 | sotrastaurin 0.032 | alvocidib -0.007 | Tubastatin A 0.012 | [6] -0.01 | defactinib -0.029 | [7] -0.052 | encorafenib 0.014 | [8] -0.044 | alisertib 0.007 | [9] 0.014 | gefitinib 0.002

PSMC4 (UniProt P43686)
inactive: vemurafenib 0.003 | [1] 0.01 | barasertib 0.033 | [2] -0.029 | volasertib -0.025 | [3] -0.021 | [4] 0.028 | [5] -0.011 | saracatinib 0.001 | sotrastaurin 0.003 | alvocidib 0.02 | Tubastatin A -0.032 | [6] 0.02 | defactinib 0.004 | [7] -0.021 | encorafenib -0.002 | [8] 0.051 | alisertib 0.015 | [9] 0.001 | gefitinib -0.032

PSMC3IP (UniProt Q9P2W1)
inactive: vemurafenib 0 | [1] 0.011 | barasertib -0.01 | [2] 0.022 | volasertib -0.004 | [3] 0.03 | [4] 0.029 | [5] -0.01 | saracatinib -0.005 | sotrastaurin -0.003 | alvocidib -0.022 | Tubastatin A -0.071 | [6] 0.036 | defactinib 0.008 | [7] 0.031 | encorafenib -0.008 | [8] -0.014 | alisertib 0.026 | [9] 0.019 | gefitinib 0.039

PUS1 (UniProt Q9Y606)
inactive: vemurafenib 0.026 | [1] 0.002 | barasertib 0.055 | [2] -0.086 | volasertib -0.077 | [3] 0.028 | [4] -0.058 | [5] -0.02 | saracatinib 0.035 | sotrastaurin -0.027 | alvocidib -0.002 | Tubastatin A -0.049 | [6] -0.008 | defactinib 0.002 | [7] -0.029 | encorafenib 0 | [8] 0.086 | alisertib 0.005 | [9] 0.014 | gefitinib -0.019

PSMC6 (UniProt P62333)
inactive: vemurafenib -0.003 | [1] -0.01 | barasertib -0.001 | [2] -0.051 | volasertib -0.056 | [3] 0.028 | [4] 0.011 | [5] -0.012 | saracatinib 0.009 | sotrastaurin 0.008 | alvocidib 0.012 | Tubastatin A -0.055 | [6] 0.008 | defactinib -0.017 | [7] -0.028 | encorafenib -0.003 | [8] 0.067 | alisertib 0.001 | [9] 0.009 | gefitinib -0.012

PTPRS isoform 3 (UniProt Q13332)
inactive: vemurafenib 0.006 | [1] 0.029 | barasertib 0.152 | [2] 0.12 | volasertib 0.117 | [3] -0.03 | [4] -0.015 | [5] -0.05 | saracatinib 0.009 | sotrastaurin 0.016 | alvocidib 0.016 | Tubastatin A 0.047 | [6] -0.039 | defactinib 0.012 | [7] 0.01 | encorafenib -0.017 | [8] 0.038 | alisertib -0.019 | [9] -0.061 | gefitinib 0.101

PSMB2 (UniProt P49721)
inactive: vemurafenib 0.005 | [1] -0.009 | barasertib 0.047 | [2] -0.002 | volasertib 0.041 | [3] -0.021 | [4] -0.05 | [5] 0.01 | saracatinib -0.016 | sotrastaurin -0.043 | alvocidib 0.008 | Tubastatin A 0.049 | [6] -0.014 | defactinib 0.007 | [7] 0.04 | encorafenib 0.011 | [8] -0.055 | alisertib 0.004 | [9] 0.005 | gefitinib -0.034
